At least one structure is not confirmed: it was looked up by name or label, or the drawing left a doubt.
System: anti-abietic acid antibody
Assay: Competition ELISA assay with natural hormones (crossreaction of anti-abietic acid antibody)
Type: binding, mouse
Settings: increasing concentrations of hormone in 5 μg/ml anti-abietic acid antibody; abietic acid-ODN antigen phase; read at 492 nm
Procedure: The antigen phase was obtained as described in Example 11, and then increasing concentrations of hormone dissolved in a 5 μg/ml solution of anti-abietic acid antibody in PBS-Tween containing 10% by volume of horse serum are incubated for one hour at 37° C. After washes with PBS-Tween, an anti-mouse antibody antibody coupled to peroxidase, in solution in PBS-Tween-horse [lacuna] is incubated for one hour at 37° C. After washes, the enzymatic substrate, o-phenylenediamine, is added. The colorimetric reaction is stopped by adding 1N sulfuric acid. The intensity of the coloration is read at 492 nm on a bioMérieux Axia Micro-reader.

In the case of `C[C@]12CC[C@@H]3c4ccc(O)cc4CC[C@H]3[C@@H]1CC[C@@H]2O` [estradiol], the “inhibition / crossreaction in competition ELISA” value is reported as “no inhibition”.
